# According to the supplement of paper PMC10735217:
# Counter-ions that a name gives are not always drawn. Some of the results follow. Repeats in this data set agree poorly, so a single value says little.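 The human kidney-derived cells carry a stably integrated construct of eight TEAD-binding elements driving luciferase, read by luminescence in a drug-repurposing library screen. A compound counts as a hit when its signal is more than five robust Z scores above the plate mean.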
# Test system: HEK293A TEAD-LUC reporter
# Test: TEAD-luciferase reporter activity (YAP activation), robust Z score vs plate; higher = stronger YAP/TEAD activation
# Conditions: 24 h
Compound,TEAD-luciferase reporter activity (compound concentration: 200 nM),TEAD-luciferase reporter activity (compound concentration: 2 uM),TEAD-luciferase reporter activity (compound concentration: 10 uM)
OC[C@H]1O[C@@H]2O[C@H]3[C@H](O)[C@@H](O)[C@@H](O[C@H]4[C@H](O)[C@@H](O)[C@@H](O[C@H]5[C@H](O)[C@@H](O)[C@@H](O[C@H]6[C@H](O)[C@@H](O)[C@@H](O[C@H]7[C@H](O)[C@@H](O)[C@@H](O[C@H]8[C@H](O)[C@@H](O)[C@@H](O[C@H]1[C@H](O)[C@H]2O)O[C@@H]8CO)O[C@@H]7CO)O[C@@H]6CO)O[C@@H]5CO)O[C@@H]4CO)O[C@@H]3CO [Benexate cyclodextrin],inactive: -0.959,inactive: -0.723,inactive: 0.411
COc1ccc(C2CC(=O)c3c(O)cc(O)cc3O2)cc1O (centres undefined),inactive: -0.641,inactive: -1.22,inactive: 1.82
CC(C)c1cccc(C(C)C)c1NC(=O)NCC1(c2ccc(OP(=O)(O)O)cc2)O[C@H](C)[C@@H](C)O1,inactive: -1.09,inactive: -0.293,inactive: 0.226
CC(CC[C@@]1(O)OC2CC3C4CC[C@H]5CC(O[C@@H]6O[C@H](CO)[C@@H](O[C@@H]7O[C@@H](C)[C@H](O)[C@@H](O)[C@H]7O)[C@H](O)[C@H]6O[C@@H]6O[C@@H](CO)[C@H](O)[C@@H](O)[C@H]6O)CC[C@]5(C)C4CC[C@]3(C)C2[C@@H]1C)CO[C@@H]1O[C@H](CO)[C@@H](O)[C@H](O)[C@H]1O (some centres undefined),inactive: -0.184,inactive: -1.4,inactive: -1.41
O=C1N=C2C=CC=CN2C12Cc1ccccc1C2,inactive: -0.45,inactive: -0.682,active: 8.18
CC(CNC(=O)c1cccnc1)NC(=O)c1cccnc1 (centres undefined) [nicaraven],inactive: -0.0581,inactive: -0.427,inactive: -1.48
CCc1oc2ccccc2c1C(=O)c1ccc(O)cc1,inactive: 0.273,inactive: 0.0427,inactive: -1.15
CC(C)c1ccc(C(=O)N=C(N)N)cc1S(C)(=O)=O,inactive: 0.599,,inactive: -0.801
CC(C)c1ccc(C(=O)N=C(N)N)cc1S(C)(=O)=O [Cariporide mesilate],,inactive: 0.203,
CCS(=O)(=O)N1CCN(c2ccc(Nc3ncc(C(N)=O)c(NC4CC4)n3)cc2)CC1 [Cerdulatinib],inactive: 3.65,active: 11.2,active: 13.4
CN(C)CC/C=C1/c2ccccc2CSc2ccccc21 [dosulepine],inactive: -1.33,inactive: -1.03,inactive: -1.59
O=C(Nc1ccccc1)c1cc(Br)cc(Br)c1O [Metabromsalan],inactive: 0.0975,inactive: -1.66,inactive: -0.365
N=C(NO)N/N=C/c1c(Cl)cccc1Cl,inactive: -0.548,inactive: -0.788,inactive: 2.13
N=C(N)N/N=C/c1c(Cl)cccc1Cl [guanabenz acetate],,inactive: -1.21,
N=C(N)N/N=C/c1c(Cl)cccc1Cl [Guanabenz acetate],inactive: -3.1,,inactive: 0.423
NC(=O)c1cccnc1,inactive: -2.57,,inactive: -1.2
NC(=O)c1cccnc1 [niacinamide],,inactive: -0.758,

Compound,TEAD-luciferase reporter activity (compound concentration: 200 nM),TEAD-luciferase reporter activity (compound concentration: 2 uM),TEAD-luciferase reporter activity (compound concentration: 10 uM)
Cc1[nH]c(CO)c(-c2ccc(Oc3ccc(OC(F)(F)F)cc3)cc2)c(=O)c1Cl,inactive: -0.876,inactive: -0.938,inactive: 0.915
C[C@@H](O)[C@H](N)C(=O)N[C@@H](CCCCN)C(=O)N1CCC[C@H]1C(=O)N[C@@H](CCCNC(=N)N)C(=O)O,inactive: -0.969,inactive: -0.498,inactive: -0.0037
COc1cccc(C(=O)N2CCC(C(=O)N3CCC(N4CCCC4=O)CC3)CC2)c1,inactive: -0.776,,inactive: -1.53
Cc1occc(=O)c1[O][V](=[O])[O]c1c(C)occc1=O,inactive: 1.86,inactive: 0.21,active: 6.08
CCOc1ccc(NC(=O)CC(C)O)cc1 (centres undefined),inactive: 1.16,inactive: -0.812,inactive: -1.03
CCC(C)(C)C(=O)O,active: 6.03,inactive: -0.705,inactive: -0.3
N#Cc1ccc(C(=O)CC2CCN(CC3CC3)CC2)cc1,inactive: -0.853,inactive: -1.56,inactive: 2.07
NC1CN(c2c(F)cc3c(=O)c(C(=O)O)cn(C4CC4)c3c2Cl)C1,active: 5.29,inactive: -0.152,inactive: -1.16
Cc1cc(NC(=O)C2=C(OC(=O)C(C)C)c3ccccc3S(=O)(=O)N2C)no1,inactive: 3.31,inactive: 1.56,inactive: -1.48
CC(C(N)C(=O)NC(C(=O)O)C1O[C@H](n2ccc(=O)[nH]c2=O)[C@H](O)[C@@H]1O)C(O)c1ccc(O)cn1 (some centres undefined) [Neopolyoxin C],inactive: 4.28,inactive: -0.847,inactive: 0.0839
N=C(N)NCCN1CCCCCCC1 [Guanethidine monosulfate],inactive: 3.99,inactive: -1.22,inactive: 1.4
OC[C@H](O)[C@@H](O)CO [erythritol],inactive: -1.79,inactive: -1.11,inactive: 1.65
CC[C@@H](C)Nc1cc(C(=O)N[C@H]2C[C@H]3CC[C@@H](C2)N3c2ccc(C(=O)C3CC3)cn2)c(C)cc1C(N)=O,inactive: -4.02,inactive: -1.87,inactive: 2.11
Cc1ccc(C(=O)Oc2ccc(C(O)CNC(C)(C)C)cc2OC(=O)c2ccc(C)cc2)cc1 (centres undefined) [bitolterol mesilate],inactive: -1.23,inactive: 0.856,inactive: -0.684
O=C1[C@@H]2[C@H]3CC[C@H](C3)[C@@H]2C(=O)N1C[C@@H]1CCCC[C@H]1CN1CCN(c2nsc3ccccc23)CC1 [lurasidone hydrochloride],inactive: -1.25,inactive: -0.32,inactive: 4.2
CCSC1=C(C(=O)O)N2C(=O)[C@H]([C@@H](C)O)[C@H]2S1,inactive: -1.26,inactive: -0.412,inactive: 0.512

# Pulled one by one from the list above:
Compound,TEAD-luciferase reporter activity (compound concentration: 200 nM),TEAD-luciferase reporter activity (compound concentration: 2 uM),TEAD-luciferase reporter activity (compound concentration: 10 uM)
Cc1ccc(C(=O)Oc2ccc(C(O)CNC(C)(C)C)cc2OC(=O)c2ccc(C)cc2)cc1 (centres undefined) [bitolterol mesilate],inactive: -1.23,inactive: 0.856,inactive: -0.684
Cc1[nH]c(CO)c(-c2ccc(Oc3ccc(OC(F)(F)F)cc3)cc2)c(=O)c1Cl,inactive: -0.876,inactive: -0.938,inactive: 0.915
